The structures given here were assigned with low confidence; some may be wrong.
Molecular target: Cdk9/cyclinT1 (Homo sapiens, UniProt P50750)
Test: Cdk9/CyclinT1 IMAP assay
Conditions: read-out: CDK9 IC50, 6 uM ATP, lower limit about 0.008, values lower than 0.008 measured under conditions with a lower dynamic range

By UniProt entry, the sequences of proteins in these tests, tags left out.
UniProt P50750, whole entry: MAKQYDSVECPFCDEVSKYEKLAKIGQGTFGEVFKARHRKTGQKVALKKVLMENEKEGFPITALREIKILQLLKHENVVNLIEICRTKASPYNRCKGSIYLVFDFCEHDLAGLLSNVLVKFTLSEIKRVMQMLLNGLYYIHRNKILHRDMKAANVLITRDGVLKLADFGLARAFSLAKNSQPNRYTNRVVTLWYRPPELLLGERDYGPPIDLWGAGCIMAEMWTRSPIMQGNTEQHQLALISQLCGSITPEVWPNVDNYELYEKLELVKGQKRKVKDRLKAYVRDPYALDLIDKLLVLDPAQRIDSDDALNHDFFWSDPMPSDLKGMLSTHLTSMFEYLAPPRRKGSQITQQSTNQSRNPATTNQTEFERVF
UniProt O60563, whole entry partner: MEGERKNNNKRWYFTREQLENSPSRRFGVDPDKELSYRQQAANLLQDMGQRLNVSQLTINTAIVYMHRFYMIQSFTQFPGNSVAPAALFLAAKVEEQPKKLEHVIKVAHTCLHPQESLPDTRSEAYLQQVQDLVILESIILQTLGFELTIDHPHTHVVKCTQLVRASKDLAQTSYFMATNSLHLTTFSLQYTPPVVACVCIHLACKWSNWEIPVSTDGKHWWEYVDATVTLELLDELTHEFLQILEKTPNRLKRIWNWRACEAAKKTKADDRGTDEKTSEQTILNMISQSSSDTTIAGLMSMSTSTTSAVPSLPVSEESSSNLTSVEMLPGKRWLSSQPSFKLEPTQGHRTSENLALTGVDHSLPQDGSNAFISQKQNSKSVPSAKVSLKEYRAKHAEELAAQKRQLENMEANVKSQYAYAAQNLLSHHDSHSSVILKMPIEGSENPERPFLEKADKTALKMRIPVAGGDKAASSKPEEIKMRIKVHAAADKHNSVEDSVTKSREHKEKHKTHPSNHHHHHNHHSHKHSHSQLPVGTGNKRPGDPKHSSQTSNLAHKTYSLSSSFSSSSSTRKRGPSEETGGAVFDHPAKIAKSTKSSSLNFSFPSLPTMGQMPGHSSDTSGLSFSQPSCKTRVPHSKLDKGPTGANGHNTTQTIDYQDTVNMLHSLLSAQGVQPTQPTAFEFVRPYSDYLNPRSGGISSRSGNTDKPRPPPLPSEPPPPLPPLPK

Q: For `CN(C)CCCNc1cc(-c2cncc(NCc3cccc(F)c3)c2)c(Cl)cn1`, which IC50 is on record?
A: 0.045 µM

From patent US20130324530A1 (Novartis AG, priority 2010, published 2013)
